From the supplement of paper PMC11264405

Experiments:
Test in all cases: minimum inhibitory concentration
rifampicin = compound: CO[C@H]1/C=C/O[C@@]2(C)Oc3c(C)c(O)c4c(O)c(c(/C=N/N5CCN(C)CC5)c(O)c4c3C2=O)NC(=O)/C(C)=C\C=C\[C@H](C)[C@H](O)[C@@H](C)[C@@H](O)[C@@H](C)[C@H](OC(C)=O)[C@@H]1C [rifampicin]
metronidazole = compound: Cc1ncc([N+](=O)[O-])n1CCO [metronidazole]
tigecycline = compound: CN(C)c1cc(NC(=O)CNC(C)(C)C)c(O)c2c1C[C@H]1C[C@H]3[C@H](N(C)C)C(O)=C(C(N)=O)C(=O)[C@@]3(O)C(O)=C1C2=O [tigecycline]
fidaxomicin = compound: CCc1c(Cl)c(O)c(Cl)c(O)c1C(=O)O[C@H]1[C@H](O)[C@H](OC)[C@H](OC/C2=C\C=C\C[C@H](O)/C(C)=C/[C@H](CC)[C@@H](O[C@@H]3OC(C)(C)[C@@H](OC(=O)C(C)C)[C@H](O)[C@@H]3O)/C(C)=C/C(C)=C/C[C@@H]([C@@H](C)O)OC2=O)O[C@@H]1C [fidaxomicin]
meropenem = compound: C[C@@H](O)[C@H]1C(=O)N2C(C(=O)O)=C(S[C@@H]3CN[C@H](C(=O)N(C)C)C3)[C@H](C)[C@H]12 [meropenem]
imipenem = compound: C[C@@H](O)[C@H]1C(=O)N2C(C(=O)O)=C(SCCNC=N)C[C@H]12 [imipenem]
clindamycin = compound: CCC[C@@H]1C[C@@H](C(=O)N[C@@H]([C@H]2O[C@H](SC)[C@H](O)[C@@H](O)[C@H]2O)[C@H](C)Cl)N(C)C1 [clindamycin]
vancomycin = compound: CN[C@H](CC(C)C)C(=O)N[C@H]1C(=O)N[C@@H](CC(N)=O)C(=O)N[C@H]2C(=O)N[C@H]3C(=O)N[C@H](C(=O)N[C@H](C(=O)O)c4cc(O)cc(O)c4-c4cc3ccc4O)[C@H](O)c3ccc(c(Cl)c3)Oc3cc2cc(c3O[C@@H]2O[C@H](CO)[C@@H](O)[C@H](O)[C@H]2O[C@H]2C[C@](C)(N)[C@H](O)[C@H](C)O2)Oc2ccc(cc2Cl)[C@H]1O [vancomycin]
linezolid = compound: CC(=O)NC[C@H]1CN(c2ccc(N3CCOCC3)c(F)c2)C(=O)O1 [linezolid]

Test System | minimum inhibitory concentration (rifampicin) [µg/mL] | minimum inhibitory concentration (metronidazole) [µg/mL] | minimum inhibitory concentration (tigecycline) [µg/mL] | minimum inhibitory concentration (fidaxomicin) [µg/mL] | minimum inhibitory concentration (meropenem) [µg/mL] | minimum inhibitory concentration (imipenem) [µg/mL] | minimum inhibitory concentration (clindamycin) [µg/mL] | minimum inhibitory concentration (vancomycin) [µg/mL] | minimum inhibitory concentration (linezolid) [µg/mL]
Clostridioides difficile PCR ribotype 002 isolate #21 (European region: West, country: Netherlands, isolate source: Human, ribotype: 002) | < 0.001 | 0.25 | < 0.03 | 0.03 | 4 | 0.5 | 16 | 1 | 2
Clostridioides difficile PCR ribotype 002 isolate #22 (European region: South, country: Italy, isolate source: Human, ribotype: 002) | < 0.001 | < 0.125 | 0.06 | 0.03 | 4 | 1 | 8 | 0.5 | 2
Clostridioides difficile PCR ribotype 002 isolate #282 (European region: South, country: Spain, isolate source: Animal, ribotype: 002) | < 0.001 | 0.25 | < 0.03 | 0.008 | 2 | 4 | > 128 | 1 | 2
Clostridioides difficile PCR ribotype 003 isolate #23 (European region: North, country: UK, isolate source: Human, ribotype: 003) | < 0.001 | < 0.125 | 0.06 | 0.03 | 4 | 4 | 4 | 1 | 2
Clostridioides difficile PCR ribotype 003 isolate #24 (European region: North, country: UK, isolate source: Human, ribotype: 003) | < 0.001 | < 0.125 | 0.06 | 0.03 | 2 | 4 | 4 | 0.5 | 2
Clostridioides difficile PCR ribotype 003 isolate #25 (European region: North, country: UK, isolate source: Human, ribotype: 003) | < 0.001 | < 0.125 | 0.06 | 0.03 | 4 | 4 | 8 | 1 | 2
Clostridioides difficile PCR ribotype 003 isolate #26 (European region: South, country: Spain, isolate source: Human, ribotype: 003) | 0.002 | < 0.125 | 0.06 | 0.06 | 4 | 4 | 4 | 1 | 2
Clostridioides difficile PCR ribotype 003 isolate #27 (European region: North, country: UK, isolate source: Human, ribotype: 003) | < 0.001 | 0.5 | < 0.03 | 0.06 | 2 | 4 | 8 | 0.5 | 2
Clostridioides difficile PCR ribotype 003 isolate #29 (European region: North, country: UK, isolate source: Human, ribotype: 003) | < 0.001 | < 0.125 | < 0.03 | 0.03 | 4 | 2 | 2 | 0.5 | 2
Clostridioides difficile PCR ribotype 003 isolate #284 (European region: West, country: France, isolate source: Animal, ribotype: 003) | < 0.001 | < 0.125 | < 0.03 | 0.03 | 4 | 2 | 16 | 0.5 | 2
Clostridioides difficile PCR ribotype 005 isolate #30 (European region: North, country: UK, isolate source: Human, ribotype: 005) | < 0.001 | 0.25 | < 0.03 | 0.03 | 2 | 4 | 0.25 | 1 | 2
Clostridioides difficile PCR ribotype 005 isolate #31 (European region: North, country: UK, isolate source: Human, ribotype: 005) | < 0.001 | 0.25 | 0.06 | 0.03 | 2 | 2 | 4 | 0.25 | 2
Clostridioides difficile PCR ribotype 005 isolate #32 (European region: South, country: Italy, isolate source: Human, ribotype: 005) | < 0.001 | 1 | 0.06 | 0.03 | 2 | 2 | 16 | < 0.125 | 2
Clostridioides difficile PCR ribotype 005 isolate #33 (European region: West, country: France, isolate source: Human, ribotype: 005) | < 0.001 | 0.25 | < 0.03 | 0.015 | 4 | 2 | 16 | 0.5 | 2
Clostridioides difficile PCR ribotype 005 isolate #34 (European region: North, country: UK, isolate source: Human, ribotype: 005) | < 0.001 | < 0.125 | < 0.03 | 0.03 | 4 | 2 | 16 | 0.5 | 2
Clostridioides difficile PCR ribotype 005 isolate #36 (European region: South, country: Spain, isolate source: Human, ribotype: 005) | 0.002 | < 0.125 | 0.06 | 0.03 | 4 | 2 | 16 | 0.5 | 2
Clostridioides difficile PCR ribotype 005 isolate #285 (European region: West, country: Austria, isolate source: Animal, ribotype: 005) | < 0.001 | 0.25 | 0.06 | 0.03 | 4 | 2 | 8 | 1 | 2
Clostridioides difficile PCR ribotype 005 isolate #286 (European region: South, country: Spain, isolate source: Animal, ribotype: 005) | < 0.001 | < 0.125 | < 0.03 | 0.03 | 4 | 2 | > 128 | 1 | 2
Clostridioides difficile PCR ribotype 005 isolate #287 (European region: West, country: Austria, isolate source: Animal, ribotype: 005) | < 0.001 | < 0.125 | 0.06 | 0.015 | 4 | 2 | 8 | 1 | 2
Clostridioides difficile PCR ribotype 005 isolate #288 (European region: West, country: France, isolate source: Animal, ribotype: 005) | < 0.001 | 0.25 | < 0.03 | 0.015 | 4 | 2 | 2 | 1 | 2
Clostridioides difficile PCR ribotype 005 isolate #289 (European region: West, country: Netherlands, isolate source: Animal, ribotype: 005) | < 0.001 | < 0.125 | < 0.03 | 0.015 | 4 | 0.5 | 8 | 1 | 2
Clostridioides difficile PCR ribotype 005 isolate #290 (European region: West, country: France, isolate source: Animal, ribotype: 005) | < 0.001 | < 0.125 | < 0.03 | 0.015 | 4 | 1 | 8 | 1 | 2
Clostridioides difficile PCR ribotype 005 isolate #291 (European region: West, country: France, isolate source: Animal, ribotype: 005) | < 0.001 | 0.25 | < 0.03 | 0.015 | 4 | 2 | 16 | 1 | 2
Clostridioides difficile PCR ribotype 005 isolate #292 (European region: West, country: France, isolate source: Animal, ribotype: 005) | < 0.001 | 0.25 | < 0.03 | 0.03 | 4 | 2 | 16 | 0.5 | 2
Clostridioides difficile PCR ribotype 005 isolate #293 (European region: West, country: France, isolate source: Animal, ribotype: 005) | < 0.001 | < 0.125 | < 0.03 | 0.03 | 4 | 2 | 16 | 0.5 | 2
Clostridioides difficile PCR ribotype 005 isolate #294 (European region: South, country: Spain, isolate source: Animal, ribotype: 005) | < 0.001 | < 0.125 | 0.06 | 0.03 | 4 | 2 | > 128 | 0.5 | 16

Reprinted at random: two records from the list, in no set order.
Test System | minimum inhibitory concentration (rifampicin) [µg/mL] | minimum inhibitory concentration (metronidazole) [µg/mL] | minimum inhibitory concentration (tigecycline) [µg/mL] | minimum inhibitory concentration (fidaxomicin) [µg/mL] | minimum inhibitory concentration (meropenem) [µg/mL] | minimum inhibitory concentration (imipenem) [µg/mL] | minimum inhibitory concentration (clindamycin) [µg/mL] | minimum inhibitory concentration (vancomycin) [µg/mL] | minimum inhibitory concentration (linezolid) [µg/mL]
Clostridioides difficile PCR ribotype 005 isolate #36 (European region: South, country: Spain, isolate source: Human, ribotype: 005) | 0.002 | < 0.125 | 0.06 | 0.03 | 4 | 2 | 16 | 0.5 | 2
Clostridioides difficile PCR ribotype 003 isolate #23 (European region: North, country: UK, isolate source: Human, ribotype: 003) | < 0.001 | < 0.125 | 0.06 | 0.03 | 4 | 4 | 4 | 1 | 2
